The assay deals with HCoV-OC43. Also noted: species or system RD; HTS, protection from HCoV-OC43 induced cell death, luminescent cell viability (CellCounting-Lite 2.0), inhibition rate. Conditions: 24 h post infection, 1 h compound pre-incubation, 10 µM, inhibitor.

Where a name gives a salt, the structure may show the parent alone. Read-outs that look alike come from different tables or passages of the source. Out of some 3,300 compounds screened, about 60 (2%) showed an effect of 50% or more. The list shows a part of the results. Peptide text beside a SMILES is read from it.

For the molecule `OCc1ccc(O[C@@H]2O[C@H](CO)[C@@H](O)[C@H](O)[C@H]2O)cc1` [Gastrodin], the “OC43 Inhibition rate” value was -0.1%.

As for `O=C(O)CNC(=O)c1cccc(O)c1` [3-Hydroxyhippuric acid], the “OC43 Inhibition rate” value is on record as 0%.

In the case of `COc1cc2c(c(OC)c1OC)-c1c(cc3c(c1OC)OCO3)C[C@H](C)[C@H](C)C2` [Gomisin N], the “OC43 Inhibition rate” value (OC43 Inhibition rate, 24 h) was found to be 15.7%.

Consider `Cc1ncc(COP(=O)(O)O)c(C=O)c1O` [Pyridoxal 5'-phosphate (monohydrate)], for which the “OC43 Inhibition rate” value (OC43 Inhibition rate, 24 h) was -1.8%.

Consider `C=C(C)[C@@H]1CC[C@]2(C=O)CC[C@]3(C)[C@H](CC[C@@H]4[C@@]5(C)CC[C@H](O)C(C)(C)[C@@H]5CC[C@]43C)[C@@H]12` [Betulinaldehyde], for which the “OC43 Inhibition rate” value is listed as -0.8%.

For `C[S+]([O-])CC[C@H](N)C(=O)O` (stereo partly drawn) [L-Methionine sulfoxide], the “OC43 Inhibition rate” value (OC43 Inhibition rate, 24 h) is -0.9%.

`COC(=O)Nc1ccc(C)c(NC(=O)OC)c1` [Obtucarbamate A]: the “OC43 Inhibition rate” value came to 0.7%.

Take `CCc1cc(C(N)=S)ccn1` [Ethionamide]: the “OC43 Inhibition rate” value is given as -1.1%.

Consider `Cn1cnc2c(ncn2[C@@H]2O[C@H](CO)[C@@H](O)[C@H]2O)c1=N` [1-Methyladenosine], for which the “OC43 Inhibition rate” value is reported as -0.1%.

Regarding `C=C1CCC2(C(C)C)CC12` (stereo not drawn) [Sabinene], the “OC43 Inhibition rate” value was -0.5%.

With `NC(=O)c1ncn([C@@H]2O[C@H](CO)[C@@H](O)[C@H]2O)c1O` [Mizoribine], the “OC43 Inhibition rate” value worked out at 3.1%.

As for `Cc1ccc(C(C)C)cc2c(C)ccc1-2` [Guaiazulene], the “OC43 Inhibition rate” value is listed as 0.2%.

In the case of `O=C(O)c1cc(O)c(O)c(O)c1` [Gallic acid (hydrate)], the “OC43 Inhibition rate” value (OC43 Inhibition rate, 24 h) was 0%.

For the molecule `CC[C@H]1[C@@H]2C[C@H]3[C@@H]4N(C)c5ccccc5[C@]45C[C@@H]([C@H]2[C@H]5O)N3[C@@H]1O` [Ajmaline], the “OC43 Inhibition rate” value is on record as 0.3%.

`COc1ccc2c(c1)[nH]c1c(C)nccc12` [Harmine]: the “OC43 Inhibition rate” value (OC43 Inhibition rate, 24 h) is given as 3.1%.

As for `CCOC(=O)NCCCC(=O)NCCc1ccccc1` [Santacruzamate A], the “OC43 Inhibition rate” value is on record as -0.6%.

Regarding `C=C1C(=O)O[C@H]2[C@H]1CCC(C)=C1CC[C@@](C)(O)[C@@H]12` [Micheliolide], the “OC43 Inhibition rate” value is recorded as -2.5%.

As to `CCCCCCCC/C=C\CCCCCCCC(=O)OCC(COC(=O)CCCCCCC/C=C\CCCCCCCC)OC(=O)CCCCCCCCCCCCCCC` [1,3-Dioleoyl-2-palmitoylglycerol], the “OC43 Inhibition rate” value was -0.3%.

As to `C[C@@H](O)[C@H](N)C(=O)O` [L-Threonine], the “OC43 Inhibition rate” value worked out at 7.5%.

Turning to `CSCC[C@H](N)C(=O)O` [L-Methionine], the “OC43 Inhibition rate” value was found to be 0.1%.

Regarding `CC(C)=CC(=O)C[C@H](C)c1ccc(C)cc1` [ar-Turmerone], the “OC43 Inhibition rate” value is -0.1%.

Take `CCc1c2c(nc3ccc(OC(=O)N4CCC(N5CCCCC5)CC4)cc13)-c1cc3c(c(=O)n1C2)COC(=O)[C@]3(O)CC` [Irinotecan (hydrochloride)]: the “OC43 Inhibition rate” value was -0.6%.

Consider `C[C@H](O)[C@H]1CC[C@H]2[C@@H]3CC[C@@H]4C[C@H](O)CC[C@]4(C)[C@H]3CC[C@]12C` [Pregnanediol], for which the “OC43 Inhibition rate” value came out at 4.1%.

`OC[C@H]1O[C@@H](OCCc2ccc(O)cc2)[C@H](O)[C@@H](O)[C@@H]1O` [Salidroside]: the “OC43 Inhibition rate” value amounted to 0.8%.

Consider `C[C@]12CC[C@@H](O)C[C@H]1CC[C@@H]1[C@@H]2C(=O)C[C@@]2(C)[C@H]1CC[C@]2(O)C(=O)CO` [Tetrahydrocortisone], for which the “OC43 Inhibition rate” value turned out to be 0.6%.

`C=C(C(=O)O)[C@@H]1CC[C@@H](C)[C@@H]2CCC(C)=C[C@@H]21` [Artemisic acid]: the “OC43 Inhibition rate” value is 4.6%.

For the molecule `CNCCC=C1c2ccccc2CCc2ccccc21` [Nortriptyline], the “OC43 Inhibition rate” value came out at 10.2%.

As for `C[C@H](CC[C@@]1(O)O[C@H]2C[C@H]3[C@@H]4CC[C@@H]5C[C@@H](O[C@@H]6O[C@H](CO)[C@@H](O)[C@H](O)[C@H]6O[C@@H]6O[C@H](CO)[C@@H](O)[C@H](O)[C@H]6O)CC[C@]5(C)[C@H]4CC[C@]3(C)[C@H]2[C@@H]1C)CO[C@@H]1O[C@H](CO)[C@@H](O)[C@H](O)[C@H]1O` [Officinalisinin I], the “OC43 Inhibition rate” value amounted to 0.4%.

Consider `CN1C[C@@H]2C[C@H](C1)c1cccc(=O)n1C2` [N-Methylcytisine], for which the “OC43 Inhibition rate” value was -2.8%.

As to `Nc1ccccc1C(=O)C[C@H](N)C(=O)O` [2-Amino-4-(2-aminophenyl)-4-oxobutanoic acid], the “OC43 Inhibition rate” value (OC43 Inhibition rate, 24 h) is recorded as -0.5%.

As for `C[C@H]1C(=O)O[C@@H]2CCN3CC=C(COC(=O)[C@](C)(O)[C@]1(C)O)[C@H]23` [Monocrotaline], the “OC43 Inhibition rate” value came to 0.4%.

With `COc1cc2c(cc1OC)-c1c(OC)c(OC)cc3c1[C@H](C2)N(C)CC3` [Glaucine], the “OC43 Inhibition rate” value is listed as 10.9%.

Consider `CCCCC/C=C\C/C=C\CCCCCCCC(=O)NCc1ccccc1` [N-Benzyllinoleamide], for which the “OC43 Inhibition rate” value was found to be 40%.

On to `CCCCCC/C=C\CCCC(=O)O` [cis-5-Dodecenoic acid], for which the “OC43 Inhibition rate” value is given as -0.1%.

As to `CC(C)(O)CC[C@@H](O)[C@](C)(O)[C@H]1CC[C@@]2(O)C3=CC(=O)[C@@H]4C[C@@H](O)[C@@H](O)C[C@]4(C)[C@H]3CC[C@]12C` [Crustecdysone], the “OC43 Inhibition rate” value is recorded as 0%.

As to `COc1ccc2c(c1O)-c1c(O)c(OC)cc3c1[C@H](C2)[N+](C)(C)CC3` [(+)-Magnoflorine (chloride)], the “OC43 Inhibition rate” value stood at 2.4%.

Consider `O=C1c2c(O)cc(O)cc2O[C@H](c2ccc(O)c(O)c2)[C@H]1O` [Taxifolin], for which the “OC43 Inhibition rate” value was found to be 2.1%.

For the molecule `C=C(C)[C@@H]1CCC2=CCC[C@@H](C)[C@]2(C)C1` [Valencene], the “OC43 Inhibition rate” value came out at 1.5%.

Turning to `CC1(C)CC[C@]2(C(=O)O[C@@H]3O[C@H](CO[C@@H]4O[C@H](CO)[C@@H](O)[C@H](O)[C@H]4O)[C@@H](O)[C@H](O)[C@H]3O)CC[C@]3(C)C(=CC[C@@H]4[C@@]5(C)CC[C@H](O[C@@H]6OC[C@H](O)[C@H](O)[C@H]6O)[C@@](C)(CO)[C@@H]5CC[C@]43C)[C@@H]2C1` [Asperosaponin VI], the “OC43 Inhibition rate” value is reported as -0.1%.

In the case of `CC(C)=C[C@H]1C[C@](C)(O)[C@@H]2[C@H]3CC[C@@H]4[C@@]5(C)CC[C@H](O[C@@H]6OC[C@H](O)[C@H](O[C@@H]7O[C@H](CO)[C@@H](O)[C@H](O)[C@H]7O[C@@H]7OC[C@@H](O)[C@H](O)[C@H]7O)[C@H]6O[C@@H]6O[C@@H](C)[C@H](O)[C@@H](O)[C@H]6O)C(C)(C)[C@@H]5CC[C@@]4(C)[C@@]34CO[C@@]2(C4)O1` [Jujuboside B], the “OC43 Inhibition rate” value is 0.5%.

Consider `COc1cc(O)c(C(C)=O)c(OC)c1` [Xanthoxylin], for which the “OC43 Inhibition rate” value stood at 0%.

Regarding `C[C@]12CCC(=O)C[C@H]1CC[C@@H]1[C@@H]2[C@@H](O)C[C@@]2(C)[C@H]1CC[C@]2(O)C(=O)CO` [5β-Dihydrocortisol], the “OC43 Inhibition rate” value was found to be 2.7%.

`C[S+](CCC(N)C(=O)[O-])C[C@H]1O[C@@H](n2cnc3c(N)ncnc32)[C@H](O)[C@@H]1O` (mixture of isomers) [S-Adenosyl-DL-methionine]: the “OC43 Inhibition rate” value is given as -0.6%.

`Cc1ncc(C[n+]2csc(CCOP(=O)(O)O)c2C)c(N)n1` [Thiamine monophosphate (chloride) (dihydrate)]: the “OC43 Inhibition rate” value is -1.9%.

Regarding `CC(=O)OCC(=O)[C@@]1(O)CC[C@H]2[C@@H]3CCC4=CC(=O)CC[C@]4(C)[C@H]3C(=O)C[C@@]21C` [Cortisone acetate], the “OC43 Inhibition rate” value was determined as 3.9%.

In the case of `CC1(C)CC[C@]2(C(=O)O[C@@H]3O[C@H](CO)[C@@H](O)[C@H](O)[C@H]3O)[C@H](O)C[C@]3(C)C(=CC[C@@H]4[C@@]5(C)CC[C@H](O[C@@H]6O[C@H](CO)[C@@H](O)[C@H](O)[C@H]6O)C(C)(C)[C@@H]5CC[C@]43C)[C@@H]2C1` [Eclalbasaponin I], the “OC43 Inhibition rate” value is -0.2%.

In the case of `C[C@@H]1O[C@@H](O[C@H]2C(=O)c3c(O)cc(O)cc3O[C@H]2c2ccc(O)c(O)c2)[C@H](O)[C@H](O)[C@H]1O` [Neoisoastilbin], the “OC43 Inhibition rate” value was -1.4%.

Take `CC1(C)O[C@H]2CC(=O)OC[C@@]23[C@H]1CC(=O)[C@@]1(C)C2=CC(=O)O[C@@H](c4ccoc4)[C@]2(C)CC[C@@H]13` [Deoxylimonin]: the “OC43 Inhibition rate” value is given as 3%.

For the molecule `COc1cc2c(cc1OC)-c1cc3ccc(OC)c(O)c3c[n+]1CC2` [Palmaturbine], the “OC43 Inhibition rate” value (OC43 Inhibition rate, 24 h) was 3.8%.

Regarding `O=C1CCN([C@@H]2O[C@H](CO)[C@@H](O)[C@H]2O)C(=O)N1` [5,6-Dihydrouridine], the “OC43 Inhibition rate” value was -2.9%.

Regarding `OC[C@@H](O)[C@@H](O)[C@H](O)[C@@H](O)CO` [D-Sorbitol], the “OC43 Inhibition rate” value amounted to 0%.

Take `O=C(O)c1ccc[nH]1` [Pyrrole-2-carboxylic acid]: the “OC43 Inhibition rate” value came out at 4.1%.

`COc1cc(CCO)ccc1O` [Homovanillyl alcohol]: the “OC43 Inhibition rate” value was -1%.

Regarding `CC1(C)[C@@H](O[C@@H]2OC[C@H](O[C@@H]3O[C@H](CO)[C@@H](O)[C@H](O)[C@H]3O[C@@H]3OC[C@@H](O)[C@H](O)[C@H]3O)[C@H](O)[C@H]2O[C@@H]2O[C@H](CO)[C@@H](O)[C@H](O)[C@H]2O)CC[C@]2(C)[C@H]3CC[C@]45OC[C@@]6(CC[C@](C)(C=O)C[C@H]64)[C@H](O)C[C@@]5(C)[C@]3(C)CC[C@@H]12` [Ardisiacrispin A], the “OC43 Inhibition rate” value is -1.4%.

For the molecule `NC(=O)c1ncn([C@@H]2O[C@H](CO)[C@@H](O)[C@H]2O)c1N` [AICAR (phosphate)], the “OC43 Inhibition rate” value came to 3.6%.

As to `CC1(C)CC[C@]2(C(=O)O)CC[C@]3(C)C(=CC[C@@H]4[C@@]5(C)CC[C@H](O[C@@H]6O[C@H](C(=O)O)[C@@H](O[C@@H]7O[C@@H](CO)[C@H](O)[C@H]7O)[C@H](O)[C@H]6O)C(C)(C)[C@@H]5CC[C@]43C)[C@@H]2C1` [Tarasaponin VI], the “OC43 Inhibition rate” value is listed as -2.6%.

Take `CC[C@H](C)[C@H](N)C(=O)N[C@@H](C)C(=O)N[C@@H](CCCN=C(N)N)C(=O)N[C@@H](CCCN=C(N)N)C(=O)N[C@@H](Cc1cnc[nH]1)C(=O)N1CCC[C@H]1C(=O)N[C@@H](Cc1ccc(O)cc1)C(=O)N[C@@H](Cc1ccccc1)C(=O)N[C@@H](CC(C)C)C(=O)O` [Kinetensin] (H-IARRHPYFL-OH): the “OC43 Inhibition rate” value is -0.6%.

Values taken from publication PMC12431657, “Discovery and mechanistic insights of dibenzoylmethane as a broad spectrum inhibitor of coronavirus” (PLOS Pathogens, 2025).
